± gives the standard deviation of the averaged measurements. Most values lie at the level of the controls, where differences are scatter.
How the values were obtained:
Experiment in all cases: level (log10 ratio to DMSO vehicle control); higher = higher biomarker level / cell amount than vehicle control
Pentafluoropropionamide = compound: NC(=O)C(F)(F)C(F)(F)F [Pentafluoropropionamide]; settings: 2200 nM; in DMSO
Experimental: (§1)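 BioMAP Diversity Plus panel of 12 human primary cell co-culture systems (3C, 4H, LPS, SAg, BT, BF4T, BE3C, CASM3C, HDF3CGF, KF3CT, MyoF, Mphg). Compounds were added 1 h before stimulation and left for 24 h (MyoF 48 h; BT 72 h for soluble read-outs or 6 d for IgG). Biomarkers were read by ELISA, cytotoxicity by SRB, PBMC viability and proliferation by Alamar Blue. Each well value was divided by the mean of 8 DMSO control wells on the same plate and log10 transformed; duplicate blinded samples were tested at 4 concentrations.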

[1] = compound: COC(=O)C(F)(F)C(F)(F)OC(F)(C(F)(F)F)C(F)(F)OC(F)=C(F)F [Methyl perfluoro(3-(1-ethenyloxypropan-2-yloxy)propanoate)]; settings: in DMSO
Experimental: as §1

[2] = compound: O=C(O)C(F)(F)C(F)(F)C(F)F [4H-Perfluorobutanoic acid]; settings: in DMSO
Experimental: as §1

[3] = compound: NS(=O)(=O)C(F)(F)C(F)(F)C(F)(F)C(F)(F)C(F)(F)C(F)(F)C(F)(F)C(F)(F)F [Perfluorooctanesulfonamide]; settings: in DMSO
Experimental: as §1

[4] = compound: NC(=O)C(F)(F)C(F)(F)C(F)(F)C(F)F; settings: in DMSO
Experimental: as §1

[5] = compound: OCC(F)(F)C(F)(F)C(F)(F)C(F)(F)C(F)(F)C(F)F [1H,1H,7H-Dodecafluoro-1-heptanol]; settings: 2200 nM; in DMSO
Experimental: as §1

[6] = compound: O=P(O)(O)CCC(F)(F)C(F)(F)C(F)(F)C(F)(F)C(F)(F)C(F)(F)F [2-(Perfluorohexyl)ethylphosphonic acid]; settings: 2200 nM; in DMSO
Experimental: as §1

Heptafluorobutyl iodide = compound: FC(F)(F)C(F)(F)C(F)(F)CI [Heptafluorobutyl iodide]; settings: 2200 nM; in DMSO
Experimental: as §1

[7] = compound: FC(F)(F)C(F)(F)C(F)(F)CC1CO1 [1H,1H-Heptafluorobutyl epoxide]; settings: 2200 nM; in DMSO
Experimental: as §1

[8] = compound: O=S(=O)(OCC(F)(F)F)C(F)(F)C(F)(F)C(F)(F)C(F)(F)F [2,2,2-Trifluoroethyl perfluorobutanesulfonate]; settings: 2200 nM; in DMSO
Experimental: as §1

[9] = compound: O=S(=O)(O)C(F)(F)C(F)(F)C(F)(F)C(F)(F)C(F)(F)C(F)(F)C(F)(F)C(F)(F)F [Perfluorooctanesulfonic acid]; settings: 2200 nM; in DMSO
Experimental: as §1

[10] = compound: O=S(=O)(F)C(F)(F)C(F)(F)C(F)(F)C(F)(F)C(F)(F)C(F)(F)C(F)(F)C(F)(F)F [Perfluorooctanesulfonyl fluoride]; settings: 2200 nM; in DMSO
Experimental: as §1

[11] = compound: OCCCCC(F)(F)C(F)(F)C(F)(F)C(F)(F)F [4:4 Fluorotelomer alcohol]; settings: 2200 nM; in DMSO
Experimental: as §1

[12] = compound: C=C(C)C(=O)OCC(F)(F)C(F)(F)C(F)(F)C(F)(F)C(F)(F)C(F)(F)C(F)(F)F; settings: in DMSO
Experimental: as §1

[13] = compound: C=CC(F)(F)C(F)(F)C(F)(F)C(F)(F)C(F)(F)C(F)(F)C(F)(F)C(F)(F)C=C [1,8-Divinylperfluorooctane]; settings: in DMSO
Experimental: as §1

[14] = compound: C=CC(=O)OCC(F)(F)C(F)(F)C(F)(F)C(F)(F)C(F)(F)C(F)(F)C(F)(F)F [1H,1H-Perfluorooctyl acrylate]; settings: 2200 nM; in DMSO
Experimental: as §1

[15] = compound: O=S(=O)(O)C(F)(F)C(F)(F)C(F)(F)C(F)(F)C(F)(F)C(F)(F)C(F)(F)C(F)(F)F [Potassium perfluorooctanesulfonate]; settings: 2200 nM; in DMSO
Experimental: as §1

[16] = compound: CO[Si](C)(CCC(F)(F)C(F)(F)C(F)(F)C(F)(F)C(F)(F)C(F)(F)F)OC [Dimethoxymethyl((perfluorohexyl)ethyl)silane]; settings: in DMSO
Experimental: as §1

Row | Test System | level (log10) (Pentafluoropropionamide) | level (log10) ([1]; 740 nM) | level (log10) ([1]; 2200 nM) | level (log10) ([2]; 2200 nM) | level (log10) ([2]; 6700 nM) | level (log10) ([2]; 20000 nM) | level (log10) ([2]; 60000 nM) | level (log10) ([3]; 2200 nM) | level (log10) ([3]; 6700 nM) | level (log10) ([3]; 20000 nM) | level (log10) ([4]; 2200 nM) | level (log10) ([4]; 6700 nM) | level (log10) ([4]; 20000 nM) | level (log10) ([4]; 60000 nM) | level (log10) [5] | level (log10) [6] | level (log10) (Heptafluorobutyl iodide) | level (log10) [7] | level (log10) [8] | level (log10) [9] | level (log10) [10] | level (log10) [11] | level (log10) ([12]; 740 nM) | level (log10) ([12]; 2200 nM) | level (log10) ([13]; 740 nM) | level (log10) ([13]; 2200 nM) | level (log10) [14] | level (log10) [15] | level (log10) ([16]; 740 nM) | level (log10) ([16]; 2200 nM)
1 | CASM3C:CXCL8/IL-8 | 0.0165 ± 0.0021 | 0.008 ± 0.034 | -0.0025 ± 0.0021 | 0.015 ± 0.04 | -0.003 ± 0.0057 | 0.004 ± 0.0042 | 0.0135 ± 0.033 | 0.006 ± 0.0042 | -0.0055 ± 0.0035 | -0.0125 ± 0.0035 | -0.0035 ± 0.0078 | -0.006 | -0.006 | 0.004 ± 0.031 | 0.003 ± 0.013 | -0.009 ± 0.017 | 0.007 ± 0.0028 | 0.0035 ± 0.021 | 0.0465 ± 0.012 | 0.023 ± 0.059 | 0.0105 ± 0.005 | 0.041 ± 0.05 | 0.018 ± 0.023 | -0.0065 ± 0.021 | 0.001 ± 0.018 | -0.015 ± 0.013 | -0.0005 ± 0.022 | 0.0245 ± 0.021 | 0.004 ± 0.0085 | 0.0005 ± 0.0078
2 | CASM3C:CXCL9/MIG | 0.007 ± 0.0042 | 0.017 ± 0.024 | 0.001 ± 0.0042 | 0.02 ± 0.059 | -0.0035 ± 0.028 | 0.0125 ± 0.00071 | 0.032 ± 0.017 | 0.034 ± 0.0014 | -0.0005 ± 0.011 | -0.0305 ± 0.022 | 0.005 ± 0.025 | -0.0075 ± 0.021 | -0.0055 ± 0.0035 | 0.0005 ± 0.0078 | 0.015 ± 0.014 | 0.036 ± 0.041 | 0.0005 ± 0.03 | 0.0035 ± 0.04 | 0.0205 ± 0.00071 | 0.025 ± 0.065 | 0.002 ± 0.017 | 0.037 ± 0.044 | 0.005 ± 0.018 | -0.003 ± 0.0057 | 0.0075 ± 0.0092 | -0.006 ± 0.014 | 0.0055 ± 0.022 | 0.0375 ± 0.08 | 0.028 ± 0.045 | -0.012 ± 0.011
3 | CASM3C:HLA-DR | 0.008 | 0.0025 ± 0.005 | 0.0055 ± 0.0021 | 0.02 ± 0.051 | -0.007 ± 0.0028 | 0.0435 ± 0.033 | 0.006 ± 0.024 | -0.006 ± 0.02 | -0.0045 ± 0.012 | -0.004 ± 0.0085 | -0.007 ± 0.021 | -0.0125 ± 0.042 | -0.0075 ± 0.016 | -0.008 ± 0.0014 | 0.017 ± 0.0071 | -0.002 ± 0.064 | -0.01 ± 0.021 | -0.0045 ± 0.026 | 0.0005 ± 0.039 | 0.0115 ± 0.08 | 0.013 ± 0.013 | 0.032 ± 0.095 | 0.009 ± 0.02 | -0.0065 ± 0.00071 | -0.0165 ± 0.00071 | -0.0075 ± 0.012 | 0.0095 ± 0.019 | 0.0055 ± 0.081 | -0.023 ± 0.021 | -0.014 ± 0.018
4 | CASM3C:IL-6 | 0.0225 ± 0.054 | 0.0145 ± 0.029 | -0.0065 ± 0.042 | 0.0175 ± 0.022 | -0.0125 ± 0.0035 | 0.0045 ± 0.023 | 0.0225 ± 0.021 | 0.0085 ± 0.025 | -0.0275 ± 0.018 | -0.023 ± 0.014 | 0 ± 0.041 | -0.0315 ± 0.0064 | -0.0165 ± 0.012 | 0.017 ± 0.05 | 0.0275 ± 0.049 | 0 ± 0.033 | 0.006 ± 0.044 | 0.0035 ± 0.054 | 0 ± 0.052 | 0.0175 ± 0.052 | 0.0005 ± 0.019 | 0.0475 ± 0.047 | 0.0135 ± 0.043 | -0.0105 ± 0.032 | 0.0095 ± 0.035 | -0.021 ± 0.0057 | -0.015 ± 0.059 | 0.047 ± 0.067 | 0.007 ± 0.035 | -0.007 ± 0.0085
